Test results reported in paper doi:10.1101/2022.09.08.506998.
Results are given in words; binding and its absence hold for the method and conditions named. Some binding calls cover weakened binding; strength is not graded here.

Sequences of proteins named here, by UniProt entry; tags and fusion partners are left off. Residues count along the entry.
UniProt P21583, residues 26-166: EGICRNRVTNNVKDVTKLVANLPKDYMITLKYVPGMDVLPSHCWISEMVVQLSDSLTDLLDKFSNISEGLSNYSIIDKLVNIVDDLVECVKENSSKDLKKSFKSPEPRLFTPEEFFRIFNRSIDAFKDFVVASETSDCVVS

Target: stem cell factor (SCF) (UniProt P21583)
Assay: cryo-EM structure

- binding: binds
Substance: stem cell factor (SCF) (from UniProt P21583 26-166) (ligand)
